Measured values reported in publication PMC2693666.
Results are given in words; binding and its absence hold for the method and conditions named. Some entries that bind do so weakly or less than the wild type.

Sequences of proteins named here, by UniProt entry; tags and fusion partners are left off. Residues count along the entry.
UniProt Q9QUG3, residues 26-155: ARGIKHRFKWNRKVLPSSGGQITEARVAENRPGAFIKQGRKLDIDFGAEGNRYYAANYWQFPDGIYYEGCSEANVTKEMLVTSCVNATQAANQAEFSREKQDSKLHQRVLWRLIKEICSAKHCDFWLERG

Assays:
Assay in all cases: ELISA; only the target purified
[1] = target: T1, rat alpha-1-inhibitor-3 (α1I3), native form, purified (rat) (UniProt P14046)
T1 sequence: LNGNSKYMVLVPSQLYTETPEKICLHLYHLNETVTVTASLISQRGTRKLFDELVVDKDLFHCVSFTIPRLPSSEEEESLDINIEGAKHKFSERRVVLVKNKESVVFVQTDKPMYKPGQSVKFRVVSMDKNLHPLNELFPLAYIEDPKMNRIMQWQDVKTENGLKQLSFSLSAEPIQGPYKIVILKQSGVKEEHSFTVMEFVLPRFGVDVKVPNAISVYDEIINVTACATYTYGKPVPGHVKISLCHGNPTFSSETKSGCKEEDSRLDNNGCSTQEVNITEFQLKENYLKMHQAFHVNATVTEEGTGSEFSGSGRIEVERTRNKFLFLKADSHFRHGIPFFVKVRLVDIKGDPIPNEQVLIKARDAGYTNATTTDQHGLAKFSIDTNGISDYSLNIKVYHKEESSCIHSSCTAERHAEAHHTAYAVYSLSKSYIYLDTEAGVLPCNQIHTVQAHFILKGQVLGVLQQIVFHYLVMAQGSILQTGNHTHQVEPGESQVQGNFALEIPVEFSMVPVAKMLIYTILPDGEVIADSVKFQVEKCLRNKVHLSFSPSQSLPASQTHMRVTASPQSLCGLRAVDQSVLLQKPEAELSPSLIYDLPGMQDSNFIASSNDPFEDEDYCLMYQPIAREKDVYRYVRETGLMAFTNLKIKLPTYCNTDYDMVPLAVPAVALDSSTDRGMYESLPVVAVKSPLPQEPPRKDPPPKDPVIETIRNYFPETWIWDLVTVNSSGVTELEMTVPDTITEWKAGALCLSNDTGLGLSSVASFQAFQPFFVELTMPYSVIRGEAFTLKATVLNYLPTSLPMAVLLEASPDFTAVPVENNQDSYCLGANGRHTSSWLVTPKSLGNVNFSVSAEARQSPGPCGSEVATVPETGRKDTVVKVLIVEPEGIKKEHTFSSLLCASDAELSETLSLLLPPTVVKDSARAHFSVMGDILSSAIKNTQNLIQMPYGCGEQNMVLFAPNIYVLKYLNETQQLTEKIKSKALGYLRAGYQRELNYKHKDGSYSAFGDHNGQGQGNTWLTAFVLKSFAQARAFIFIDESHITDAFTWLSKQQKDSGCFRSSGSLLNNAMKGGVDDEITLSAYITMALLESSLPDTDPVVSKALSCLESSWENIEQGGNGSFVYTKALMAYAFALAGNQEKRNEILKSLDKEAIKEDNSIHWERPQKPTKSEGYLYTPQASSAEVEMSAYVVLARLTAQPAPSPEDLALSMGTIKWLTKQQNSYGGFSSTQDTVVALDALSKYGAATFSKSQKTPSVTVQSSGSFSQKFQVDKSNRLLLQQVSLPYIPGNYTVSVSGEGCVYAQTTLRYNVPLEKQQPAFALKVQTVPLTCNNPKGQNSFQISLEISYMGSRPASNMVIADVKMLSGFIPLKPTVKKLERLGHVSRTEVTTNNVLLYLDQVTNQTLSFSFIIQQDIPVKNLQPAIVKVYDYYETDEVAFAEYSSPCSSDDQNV

recMoDpl(26–155) (mouse) = recMoDpl(26–155) (mouse) (UniProt Q9QUG3)
[2] = target: T2, rat alpha-1-inhibitor-3 (α1I3), methylamine-activated (FAST) form (rat) (UniProt P14046)
T2 sequence (chain, methylamine-activated): T1 sequence

MoPrP-Fc (from UniProt P04925 23-231) (Fc fusion)
binding [1]: no binding
binding (recMoDpl(26–155) (mouse)): binds
binding [2]: no binding
